In PMC8789831 one finds binding data, which are given here for one substance.

Results are given in words; binding and its absence hold for the method and conditions named. Binding seen in cells or lysates may run through a third protein. Some binding calls cover weakened binding; strength is not graded here.

The target in this test is endogenous TCP1α (human (endogenous in HeLa)) (UniProt P17987). In words: co-IP; data not shown; coprecipitation with endogenous TCP1α in the presence of a (de)polymerization inhibitor with bafilomycin A1.

Take p62 (from UniProt Q13501 1-440): the binding result was “binds”.
